## Percent effect of library compounds

From ChEMBL document CHEMBL3988442, “University of Dundee, Small-Polar-MMV Screening Library” (2021).

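Cell assay of Leishmania donovani living inside macrophages; the read-out is not stated. Concentration: 30 µM. Direction is inferred from retests: higher values go with stronger inhibition. About 69,000 compounds were tested under these conditions; 1.5% (about 1,000) showed 50% or more at least once.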

Each number is a percent effect as filed.
How 0% and 100% were set is not recorded. Most values in the screen are low, and negative values occur.
This is an unselected part of the compounds tested.
Two or more numbers in one place are separate tests of the same structure; such repeats can differ widely.

Result for CCCC(=O)NCCc1nc(N(C)C)ncc1-c1ccncc1 was 18.99%. Result for N#CCCCS(=O)(=O)NC1(c2ccc(F)cc2)CC1 was -56.53%. O=C(CSc1nnc(N2CCNCC2)s1)Nc1ccccc1.O=C(O)C(F)(F)F gave 5.125%. CC(Nc1nc2c(cnn2C)c(=O)[nH]1)c1ccccn1 (stereo not given) gave -2.226%. CN(C)C1Cc2ccccc2N(S(=O)(=O)c2ccccc2C#N)C1 (stereo not given) read -18.62%. For Cc1nc(C)n(CC2CCCN(c3ccnc(-c4ccccc4)n3)C2)n1 (stereo not given) the result was 11.66%. Cc1cc(CN(C)Cc2cnc3c(c2)c(C)nn3C)no1 read 11.34%.

For CCN(CC(=O)NCc1nc(C2CC2)no1)Cc1ccc(Cl)cc1 the result was 4.038%. Result for O=C(O)C(F)(F)F.[H][C@@]12CCN(c3cnccn3)C[C@]1([H])CN(C(=O)c1ccn(C)n1)C2 was 20.01%. With CCn1nc(CNC(=O)C2CCCN(C(=O)COC)C2)c2ccccc21 (stereo not given) the screen gave -1.425%. CCOc1cccc(CCNC(=O)NC2CCc3[nH]ncc3C2)n1 (stereo not given) read -20.65%. For Cc1ccc(C(O)CNC(=O)NCc2csc(C)n2)cc1 (stereo not given) the result was -1.317%. With Cc1ccc(CCCC(=O)N2CC(=O)Nc3cccnc32)s1 the screen gave 20%. Cc1nc(N2CCCC2)ccc1NCc1ccccn1 gave 42.45%.

CC1CCN(CCNC(=O)c2cncnc2C(C)C)CC1 read 11.52%. For Cc1nc(N2CCOCC2)nc2c1COCC21CCN(CC2CC2)C1.O=C(O)C(F)(F)F (stereo not given) the result was -25.89%. Result for Oc1nc(N2CCOCC2)nc2c1CCN(Cc1ccc(F)cc1)CC2 was 13.38% and -31.46%. Cc1cnn(CC(C)NCc2cccc(C#N)c2)c1 (stereo not given) gave 2.117%. With COc1cccc(C(=O)Nc2ccc(OCCC(N)=O)cc2)c1OC the screen gave 28.58%. Result for O=C(NCCNc1ncccn1)NCCSC(F)(F)F was 32.97%. Result for CC(C)(C)Oc1ccc(NCC(=O)NCc2ccco2)cc1 was 16.26%.

COc1cccc(C2(NC(=O)CCNC(C)=O)CC2)c1 read -0.924%. Result for CCOC(=O)NC(=O)CSC(C)c1ccccc1F (stereo not given) was 13.02%. O=C(O)C(F)(F)F.O=C(O)C(F)(F)F.[H][C@@]12COC[C@]1(CNS(C)(=O)=O)CN(Cc1cccnc1OC)C2 read 16.51%. Result for COc1cccc(CC(=O)N2CCC(Cc3nnc(SC)n3C)CC2)c1 was 15.68%. Cn1nc(C(=O)N2CC(Oc3nc4c(Cl)cccc4s3)C2)ccc1=O read -14.07%. CC(c1ncc(C(C)(C)C)o1)N1CCN(Cc2ccc(Cl)s2)CC1 (stereo not given) read 6.534%. With [H][C@@]12CCN(Cc3ccncc3)C[C@@]1([H])O[C@@H](C(=O)N(C)C)C2 the screen gave 2.592%.

With O=C(O)C(F)(F)F.O=C(O)C(F)(F)F.[H][C@@]12CCCO[C@]1([H])[C@@H](OCc1cccc(C)n1)CN2c1nnc(C)s1 the screen gave 34.44%. For CC(c1cccnc1)N(C)Cc1cc2cc3c(cc2[nH]c1=O)OCO3 (stereo not given) the result was -8.256%. CCc1cnc(CN2CCC(N(C)Cc3noc(C)n3)C2)o1 (stereo not given) read -8.488%. For O=C(CCNC(=O)C1=Cc2ccccc2OC1)NCc1ccncc1 the result was 13.09%. O=C(c1ccn(-c2cccc(Cl)c2)n1)N1CCN(C2CC2)CC1 read -12.08%. With O=C(O)C(F)(F)F.O=C(O)C(F)(F)F.O=C(O)C(F)(F)F.[H][C@@]12OCCN(Cc3cccc(C)n3)[C@@]1([H])CC[C@@H]2OCc1ccncc1 the screen gave 12.49%. CCS(=O)(=O)N(C)C1CCN(C(=O)c2ccc(C)c(C)c2)CC1 gave -7.993%.

With O=C(NCCc1cccnc1)c1nc2c(s1)CCCN2C(=O)C1CC1.O=C(O)C(F)(F)F the screen gave 46.09%. Cc1nnc(CN(C)C(=O)C(CC(C)C)N2CCCCC2=O)n1C (stereo not given) read -15.18%. With Cc1ccc(C(=O)N2CCN(C(=O)C(C)n3ccnc3)CC2)cc1F (stereo not given) the screen gave 10.01%. Result for COCCCN1CCCC1c1noc(C2CC2)n1 (stereo not given) was -16.98%. Cc1nnc(NCc2ccccc2Cl)c(C#N)c1C read 31.65%. With CCc1ncc2c(n1)CN(C(=O)c1c(C)[nH]c3c1C(=O)CCC3)C2 the screen gave -13.7%. For Cc1noc(C)c1CNCC1COCc2c(-c3ccsc3)nnn2C1.O=C(O)C(F)(F)F (stereo not given) the result was 6.057%.

Result for CS(=O)(=O)N1CCC(C(=O)NC(Cc2ccsc2)c2nccs2)CC1 (stereo not given) was 16.19%. With COCCCN(C)C1CCCN(Cc2noc(C)n2)C1 (stereo not given) the screen gave 26.31%. Result for Cn1cc(C(=O)N2CCCC(Cc3cncc4ccccc34)C2)cn1 (stereo not given) was 16.46%. With Cc1ccc(C(=O)N2CCC(=O)N(CC3CC3)C(C(C)C)C2)c(=O)[nH]1 (stereo not given) the screen gave -14.91%. CCc1nc(CNc2cc(C)nc(-c3cccnc3)n2)cs1 gave 18.09%. Cc1nc2n(n1)CC(Nc1ncnc3c1CCC3)CC2 (stereo not given) read 15.82%. With Cc1ncsc1C(=O)NC1CCN(CC(=O)N(C)c2ccccc2)CC1 the screen gave 37.29%.

O=C(O)C(F)(F)F.[H][C@]12CCN(c3ncccn3)CC[C@@]1([H])S(=O)(=O)N(CC(=O)N(C)C)C2 read 18.92%. CCCn1nc(C)c(C(=O)N(C)[C@@H]2CC[C@@H](N3CCCC3)[C@@H]2O)c1C read 20.21%. With CCOc1ncccc1CNC(=O)Nc1ccc(CC)cc1 the screen gave 12.43%. With CCC(=O)N1CCC2(COCc3cnc(N4CCOCC4)nc32)C1 (stereo not given) the screen gave 2.692%. For CC(C)(C(=O)N[C@@H]1CCC[C@@H](O)[C@@H]1O)c1cccc(F)c1 the result was 14.03%. With O=C(O)C(F)(F)F.[H][C@]12CCC[C@@]1(COCC(=O)N(C)C)CN(C1CCCC1)C2 the screen gave 24.25%. c1ccc(CCCN2CCCN(c3ncnc4[nH]ccc34)CC2)cc1 read 5.027%.

With N#Cc1ccc(N2CCC3(CCCN(c4ccccn4)C3)C2)nc1.O=C(O)C(F)(F)F (stereo not given) the screen gave 10.79%.

Some entries from above, unchanged:

For CCCC(=O)NCCc1nc(N(C)C)ncc1-c1ccncc1 the result was 18.99%.
For Cc1nc2n(n1)CC(Nc1ncnc3c1CCC3)CC2 (stereo not given) the result was 15.82%.
For O=C(O)C(F)(F)F.[H][C@]12CCC[C@@]1(COCC(=O)N(C)C)CN(C1CCCC1)C2 the result was 24.25%.
For O=C(O)C(F)(F)F.[H][C@@]12CCN(c3cnccn3)C[C@]1([H])CN(C(=O)c1ccn(C)n1)C2 the result was 20.01%.
For COc1cccc(CC(=O)N2CCC(Cc3nnc(SC)n3C)CC2)c1 the result was 15.68%.
For O=C(O)C(F)(F)F.O=C(O)C(F)(F)F.[H][C@@]12CCCO[C@]1([H])[C@@H](OCc1cccc(C)n1)CN2c1nnc(C)s1 the result was 34.44%.